Binding data for 5 molecules are collected here from publication PMC13558869.

Results are given in words; binding and its absence hold for the method and conditions named. In cells and extracts the contact can be indirect. A yes stands for co-enrichment or nearness to the bait. Other partners may have been found. For some of these results: Sequences can lack the tags named with a protein.

Assay [1] deals with T1, ZFP36L1 (human (endogenous in primary T cells)) (UniProt Q07352).
T1 sequence: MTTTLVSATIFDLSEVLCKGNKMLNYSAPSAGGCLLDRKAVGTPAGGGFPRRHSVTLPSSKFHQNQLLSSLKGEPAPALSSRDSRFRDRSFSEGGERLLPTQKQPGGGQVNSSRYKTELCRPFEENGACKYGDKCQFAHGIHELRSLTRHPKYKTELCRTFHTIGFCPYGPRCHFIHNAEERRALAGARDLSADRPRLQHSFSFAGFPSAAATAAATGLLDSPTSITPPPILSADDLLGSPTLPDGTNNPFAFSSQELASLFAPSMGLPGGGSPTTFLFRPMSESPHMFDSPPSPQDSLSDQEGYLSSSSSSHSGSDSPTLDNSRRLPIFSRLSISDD
Briefly: affinity purification with mass spectrometry; Co-IP of endogenous ZFP36L1 with 10 μg anti-ZFP36L1 (1A3) or IgG control on Protein A Dynabeads, 4 h at 4°C, from cytoplasmic (1% digitonin) lysates of αCD3/αCD28-activated human CD3+ T cells at 0, 2, 5, 16 h; lysates untreated or treated with 200 U/ml RNAse A throughout; MS.

In assay [2] the target is T2, UltraID_ZFP36L1 (UltraID fused to the N-terminus of ZFP36L1, co-expressed with GFP through P2A) (UniProt Q07352).
T2 sequence: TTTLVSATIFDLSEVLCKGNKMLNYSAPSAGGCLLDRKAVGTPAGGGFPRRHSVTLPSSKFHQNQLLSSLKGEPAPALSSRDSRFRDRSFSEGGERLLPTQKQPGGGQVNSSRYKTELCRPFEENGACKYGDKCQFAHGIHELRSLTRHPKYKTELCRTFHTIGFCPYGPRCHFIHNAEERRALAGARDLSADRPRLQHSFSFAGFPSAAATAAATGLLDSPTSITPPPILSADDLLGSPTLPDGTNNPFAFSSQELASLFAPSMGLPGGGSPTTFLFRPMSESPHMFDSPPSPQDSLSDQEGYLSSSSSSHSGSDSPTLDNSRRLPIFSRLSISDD
The experiment in a line: proximity labelling; UltraID_L1 in retrovirally transduced primary human T cells, rested or re-activated 16 h with αCD3/αCD28, with or without 500 μM biotin; biotinylated proteins captured from lysate on streptavidin beads and identified by MS; controls UltraID_GFP and no biotin; T cell screens 1 and 2 (the network of Fig 3A also draws on the Jurkat screen).

Assay [3] concerns the target T2, UltraID_ZFP36L1 (UltraID fused to the N-terminus of ZFP36L1, co-expressed with GFP through P2A). The experiment in a line: proximity labelling; time course: UltraID_L1 T cells re-activated with αCD3/αCD28 for 0, 2, 5, 16 h; biotin added for 2 h, for 3 h (2-5 h) or for 9 h (5-16 h); streptavidin capture, MS; supervised classification into shapes.

B1: MOV10 (protein, UniProt Q9HCE1 1-1003)
chain: MPSKFSCRQLREAGQCFESFLVVRGLDMETDRERLRTIYNRDFKISFGTPAPGFSSMLYGMKIANLAYVTKTRVRFFRLDRWADVRFPEKRRMKLGSDISKHHKSLLAKIFYDRAEYLHGKHGVDVEVQGPHEARDGQLLIRLDLNRKEVLTLRLRNGGTQSVTLTHLFPLCRTPQFAFYNEDQELPCPLGPGECYELHVHCKTSFVGYFPATVLWELLGPGESGSEGAGTFYIARFLAAVAHSPLAAQLKPMTPFKRTRITGNPVVTNRIEEGERPDRAKGYDLELSMALGTYYPPPRLRQLLPMLLQGTSIFTAPKEIAEIKAQLETALKWRNYEVKLRLLLHLEELQMEHDIRHYDLESVPMTWDPVDQNPRLLTLEVPGVTESRPSVLRGDHLFALLSSETHQEDPITYKGFVHKVELDRVKLSFSMSLLSRFVDGLTFKVNFTFNRQPLRVQHRALELTGRWLLWPMLFPVAPRDVPLLPSDVKLKLYDRSLESNPEQLQAMRHIVTGTTRPAPYIIFGPPGTGKTVTLVEAIKQVVKHLPKAHILACAPSNSGADLLCQRLRVHLPSSIYRLLAPSRDIRMVPEDIKPCCNWDAKKGEYVFPAKKKLQEYRVLITTLITAGRLVSAQFPIDHFTHIFIDEAGHCMEPESLVAIAGLMEVKETGDPGGQLVLAGDPRQLGPVLRSPLTQKHGLGYSLLERLLTYNSLYKKGPDGYDPQFITKLLRNYRSHPTILDIPNQLYYEGELQACADVVDRERFCRWAGLPRQGFPIIFHGVMGKDEREGNSPSFFNPEEAATVTSYLKLLLAPSSKKGKARLSPRSVGVISPYRKQVEKIRYCITKLDRELRGLDDIKDLKVGSVEEFQGQERSVILISTVRSSQSFVQLDLDFNLGFLKNPKRFNVAVTRAKALLIIVGNPLLLGHDPDWKVFLEFCKENGGYTGCPFPAKLDLQQGQNLLQGLSKLSPSTSGPHSHDYLPQEREGEGGLSLQVEPEWRNEL
On to B1, for which the binding result in assay [1] and in assay [2] was “binds” each time.

B2: CSTF2 (protein, UniProt P33240 1-577)
chain: MAGLTVRDPAVDRSLRSVFVGNIPYEATEEQLKDIFSEVGPVVSFRLVYDRETGKPKGYGFCEYQDQETALSAMRNLNGREFSGRALRVDNAASEKNKEELKSLGTGAPVIESPYGETISPEDAPESISKAVASLPPEQMFELMKQMKLCVQNSPQEARNMLLQNPQLAYALLQAQVVMRIVDPEIALKILHRQTNIPTLIAGNPQPVHGAGPGSGSNVSMNQQNPQAPQAQSLGGMHVNGAPPLMQASMQGGVPAPGQMPAAVTGPGPGSLAPGGGMQAQVGMPGSGPVSMERGQVPMQDPRAAMQRGSLPANVPTPRGLLGDAPNDPRGGTLLSVTGEVEPRGYLGPPHQGPPMHHVPGHESRGPPPHELRGGPLPEPRPLMAEPRGPMLDQRGPPLDGRGGRDPRGIDARGMEARAMEARGLDARGLEARAMEARAMEARAMEARAMEARAMEVRGMEARGMDTRGPVPGPRGPIPSGMQGPSPINMGAVVPQGSRQVPVMQGTGMQGASIQGGSQPGGFSPGQNQVTPQDHEKAALIMQVLQLTADQIAMLPPEQRQSILILKEQIQKSTGAP
As for B2, the binding entry in assay [3] and in assay [2] was “binds” in each case.

B3: UBAP2 (protein, UniProt Q5T6F2 1-1119)
chain: MMTSVSSDHCRGAREKPQISAAQSTQPQKQVVQATAEQMRLAQVIFDKNDSDFEAKVKQLMEVTGKNQDECIVALHDCNGDVNKAINILLEGNSDTTSWETVGCKKKNFAKENSENKENREKKSEKESSRGRGNNNRKGRGGNRGREFRGEENGIDCNQVDKPSDRGKRARGRGFGRGRGRGAGRFSTQGMGTFNPADYSDSTSTDVCGTKLVVWEAAQNGADEGTELASNTHNIAQDLSNKSSYGLKGAWKNSVEEWTTEDWTEDLSETKVFTASSAPAENHILPGQSIDLVALLQKPVPHSQASEANSFETSQQQGFGQALVFTNSQHNNQMAPGTGSSTAVNSCSPQSLSSVLGSGFGELAPPKMANITSSQILDQLKAPSLGQFTTTPSTQQNSTSHPTTTTSWDLKPPTSQSSVLSHLDFKSQPEPSPVLSQLSQRQQHQSQAVTVPPPGLESFPSQAKLRESTPGDSPSTVNKLLQLPSTTIENISVSVHQPQPKHIKLAKRRIPPASKIPASAVEMPGSADVTGLNVQFGALEFGSEPSLSEFGSAPSSENSNQIPISLYSKSLSEPLNTSLSMTSAVQNSTYTTSVITSCSLTSSSLNSASPVAMSSSYDQSSVHNRIPYQSPVSSSESAPGTIMNGHGGGRSQQTLDTPKTTGPPSALPSVSSLPSTTSCTALLPSTSQHTGDLTSSPLSQLSSSLSSHQSSLSAHAALSSSTSHTHASVESASSHQSSATFSTAATSVSSSASSGASLSSSMNTANSLCLGGTPASASSSSSRAAPLVTSGKAPPNLPQGVPPLLHNQYLVGPGGLLPAYPIYGYDELQMLQSRLPVDYYGIPFAAPTALASRDGSLANNPYPGDVTKFGRGDSASPAPATTPAQPQQSQSQTHHTAQQPFVNPALPPGYSYTGLPYYTGMPSAFQYGPTMFVPPASAKQHGVNLSTPTPPFQQASGYGQHGYSTGYDDLTQGTAAGDYSKGGYAGSSQAPNKSAGSGPGKGVSVSSSTTGLPDMTGSVYNKTQTFDKQGFHAGTPPPFSLPSVLGSTGPLASGAAPGYAPPPFLHILPAHQQPHSQLLHHHLPQDAQSGSGQRSQPSSLQPKSQASKPAYGNSPYWTN
On to B3, for which the binding result in assay [3] and in assay [2] was “binds” each time.

B4: PATL1 (protein, UniProt Q86TB9 1-770)
chain: MFRYESLEDCPLDEDEDAFQGLGEEDEEIDQFNDDTFGSGAVDDDWQEAHERLAELEEKLPVAVNEQTGNGERDEMDLLGDHEENLAERLSKMVIENELEDPAIMRAVQTRPVLQPQPGSLNSSIWDGSEVLRRIRGPLLAQEMPTVSVLEYALPQRPPQGPEDDRDLSERALPRRSTSPIIGSPPVRAVPIGTPPKQMAVPSFTQQILCPKPVHVRPPMPPRYPAPYGERMSPNQLCSVPNSSLLGHPFPPSVPPVLSPLQRAQLLGGAQLQPGRMSPSQFARVPGFVGSPLAAMNPKLLQGRVGQMLPPAPGFRAFFSAPPSATPPPQQHPPGPGPHLQNLRSQAPMFRPDTTHLHPQHRRLLHQRQQQNRSQHRNLNGAGDRGSHRSSHQDHLRKDPYANLMLQREKDWVSKIQMMQLQSTDPYLDDFYYQNYFEKLEKLSAAEEIQGDGPKKERTKLITPQVAKLEHAYKPVQFEGSLGKLTVSSVNNPRKMIDAVVTSRSEDDETKEKQVRDKRRKTLVIIEKTYSLLLDVEDYERRYLLSLEEERPALMDDRKHKICSMYDNLRGKLPGQERPSDDHFVQIMCIRKGKRMVARILPFLSTEQAADILMTTARNLPFLIKKDAQDEVLPCLLSPFSLLLYHLPSVSITSLLRQLMNLPQSAATPALSNPHLTAVLQNKFGLSLLLILLSRGEDLQSSDPATESTQNNQWTEVMFMATRELLRIPQAALAKPISIPTNLVSLFSRYVDRQKLNLLETKLQLVQGIR
For the molecule B4, the binding entry in assay [3] and in assay [2] was “binds” in each case.

B5: ATXN2L (protein, UniProt Q8WWM7 1-1075)
chain: MLKPQPLQQPSQPQQPPPTQQAVARRPPGGTSPPNGGLPGPLATSAAPPGPPAAASPCLGPVAAAGSGLRRGAEGILAPQPPPPQQHQERPGAAAIGSARGQSTGKGPPQSPVFEGVYNNSRMLHFLTAVVGSTCDVKVKNGTTYEGIFKTLSSKFELAVDAVHRKASEPAGGPRREDIVDTMVFKPSDVMLVHFRNVDFNYATKDKFTDSAIAMNSKVNGEHKEKVLQRWEGGDSNSDDYDLESDMSNGWDPNEMFKFNEENYGVKTTYDSSLSSYTVPLEKDNSEEFRQRELRAAQLAREIESSPQYRLRIAMENDDGRTEEEKHSAVQRQGSGRESPSLASREGKYIPLPQRVREGPRGGVRCSSSRGGRPGLSSLPPRGPHHLDNSSPGPGSEARGINGGPSRMSPKAQRPLRGAKTLSSPSNRPSGETSVPPPPAVGRMYPPRSPKSAAPAPISASCPEPPIGSAVPTSSASIPVTSSVSDPGVGSISPASPKISLAPTDVKELSTKEPGRTLEPQELARIAGKVPGLQNEQKRFQLEELRKFGAQFKLQPSSSPENSLDPFPPRILKEEPKGKEKEVDGLLTSEPMGSPVSSKTESVSDKEDKPPLAPSGGTEGPEQPPPPCPSQTGSPPVGLIKGEDKDEGPVAEQVKKSTLNPNAKEFNPTKPLLSVNKSTSTPTSPGPRTHSTPSIPVLTAGQSGLYSPQYISYIPQIHMGPAVQAPQMYPYPVSNSVPGQQGKYRGAKGSLPPQRSDQHQPASAPPMMQAAAAAGPPLVAATPYSSYIPYNPQQFPGQPAMMQPMAHYPSQPVFAPMLQSNPRMLTSGSHPQAIVSSSTPQYPSAEQPTPQALYATVHQSYPHHATQLHAHQPQPATTPTGSQPQSQHAAPSPVQHQAGQAPHLGSGQPQQNLYHPGALTGTPPSLPPGPSAQSPQSSFPQPAAVYAIHHQQLPHGFTNMAHVTQAHVQTGITAAPPPHPGAPHPPQVMLLHPPQSHGGPPQGAVPQSGVPALSASTPSPYPYIGHPQGEQPGQAPGFPGGADDRIREFSLAGGIWHGRAEGLQVGQDARVLGGE
In the case of B5, the binding entry in assay [3] and in assay [2] was “binds” throughout.
